The results in this text go back to article PMC6977653.

Protein sequences, listed by entry. Tags and fused reporters are not part of them.
UniProt P49841: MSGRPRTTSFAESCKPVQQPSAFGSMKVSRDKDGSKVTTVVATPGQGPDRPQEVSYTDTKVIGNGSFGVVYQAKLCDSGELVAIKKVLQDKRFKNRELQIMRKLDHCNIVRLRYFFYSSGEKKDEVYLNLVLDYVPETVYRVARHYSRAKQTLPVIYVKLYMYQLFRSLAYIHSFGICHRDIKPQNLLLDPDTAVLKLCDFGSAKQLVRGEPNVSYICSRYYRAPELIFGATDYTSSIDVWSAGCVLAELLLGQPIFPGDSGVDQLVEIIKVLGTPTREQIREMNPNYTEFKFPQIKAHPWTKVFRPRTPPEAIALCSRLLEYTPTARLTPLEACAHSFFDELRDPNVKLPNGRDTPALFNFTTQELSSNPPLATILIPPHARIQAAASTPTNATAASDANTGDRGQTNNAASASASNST
UniProt O95863: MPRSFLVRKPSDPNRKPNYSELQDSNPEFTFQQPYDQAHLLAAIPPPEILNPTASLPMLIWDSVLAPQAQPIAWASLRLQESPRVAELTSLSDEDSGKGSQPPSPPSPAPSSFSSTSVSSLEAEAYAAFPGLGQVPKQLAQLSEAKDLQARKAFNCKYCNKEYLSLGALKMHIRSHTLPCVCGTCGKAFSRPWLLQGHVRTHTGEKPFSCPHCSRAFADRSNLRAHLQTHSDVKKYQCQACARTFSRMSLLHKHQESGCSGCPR

These are yes or no findings as the source states them, for the method shown. Binding seen in cells or lysates may run through a third protein. Some binding calls cover weakened binding; strength is not graded here. Where a sequence is shown, tags or fusion partners need not be part of it.

For this assay, the target named is GSK3β (UniProt P49841). Kind of assay: co-IP; HEK293T transfected with GSK3β, FHL3-HA (0, 5, 15 ug plasmid), snail1 and twist1 for 48 h; RIPA lysate; immune magnetic beads (anti-Myc, anti-HA, anti-Flag), 4 °C, 24 h; TBS washing; western blot.

With snail1 (from UniProt O95863 1-264), the binding result is “binds”.

B1: four-and-a-half LIM domains 3 (FHL3), HA-tagged (protein, UniProt Q13643 1-280)
chain: MSESFDCAKCNESLYGRKYIQTDSGPYCVPCYDNTFANTCAECQQLIGHDSRELFYEDRHFHEGCFRCCRCQRSLADEPFTCQDSELLCNDCYCSAFSSQCSACGETVMPGSRKLEYGGQTWHEHCFLCSGCEQPLGSRSFVPDKGAHYCVPCYENKFAPRCARCSKTLTQGGVTYRDQPWHRECLVCTGCQTPLAGQQFTSRDEDPYCVACFGELFAPKCSSCKRPIVGLGGGKYVSFEDRHWHHNCFSCARCSTSLVGQGFVPDGDQVLCQGCSQAGP
With B1, the binding entry is listed as “binds”.
